Results published in PMC7852611.
Results are given in words; binding and its absence hold for the method and conditions named. Binding seen in cells or lysates may run through a third protein. Some results given as binding are weak or reduced against the parent protein; the word gives no strength. For some assays here: Where a sequence is shown, tags or fusion partners need not be part of it.

Protein sequences, listed by entry. Tags and fused reporters are not part of them.
UniProt P35222: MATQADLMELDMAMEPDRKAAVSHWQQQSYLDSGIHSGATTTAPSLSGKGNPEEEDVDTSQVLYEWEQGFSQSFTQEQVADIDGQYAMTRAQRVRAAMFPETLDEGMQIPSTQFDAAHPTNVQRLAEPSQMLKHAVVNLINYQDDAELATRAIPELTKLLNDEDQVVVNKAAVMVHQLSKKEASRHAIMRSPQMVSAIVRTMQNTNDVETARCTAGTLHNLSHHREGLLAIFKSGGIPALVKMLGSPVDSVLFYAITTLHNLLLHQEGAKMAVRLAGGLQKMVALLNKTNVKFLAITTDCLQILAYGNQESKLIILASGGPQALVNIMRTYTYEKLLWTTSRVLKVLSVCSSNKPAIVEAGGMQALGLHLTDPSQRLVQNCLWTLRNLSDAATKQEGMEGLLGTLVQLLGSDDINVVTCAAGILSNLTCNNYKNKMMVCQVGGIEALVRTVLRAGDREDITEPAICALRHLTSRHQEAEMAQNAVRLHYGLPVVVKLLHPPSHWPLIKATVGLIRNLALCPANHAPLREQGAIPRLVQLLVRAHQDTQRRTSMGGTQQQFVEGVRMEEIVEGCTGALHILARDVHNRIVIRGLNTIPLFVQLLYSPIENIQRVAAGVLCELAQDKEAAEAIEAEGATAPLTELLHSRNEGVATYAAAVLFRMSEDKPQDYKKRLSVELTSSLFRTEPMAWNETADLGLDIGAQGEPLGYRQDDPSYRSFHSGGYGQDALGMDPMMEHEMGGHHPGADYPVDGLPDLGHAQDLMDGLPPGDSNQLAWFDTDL

Legend:
[1] = biological target: T1, AQP1 (Aquaporin1) (human (endogenous in breast cancer tissue)) (UniProt P29972); experiment: co-IP; lysates of breast cancer tissues in Co-IP lysis buffer (pH 7.4), 4 °C; western blot
T1 sequence: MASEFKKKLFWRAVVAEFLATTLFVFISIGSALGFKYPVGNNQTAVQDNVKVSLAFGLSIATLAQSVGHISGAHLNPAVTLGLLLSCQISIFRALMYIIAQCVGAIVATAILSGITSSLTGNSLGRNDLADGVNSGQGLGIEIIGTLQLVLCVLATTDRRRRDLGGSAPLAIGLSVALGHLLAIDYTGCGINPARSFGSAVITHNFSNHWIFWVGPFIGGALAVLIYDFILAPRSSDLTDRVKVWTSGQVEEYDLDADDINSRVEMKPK

[2] = biological target: T2, Flag-AQP1 (UniProt P29972); experiment: co-IP; lysates of MDA-MB-231 cells stably expressing Flag-AQP1 or Flag-labeled AQP1 fragments; anti-flag M2 affinity gel, eluted with flag peptides; western blot for β-catenin
T2 sequence: T1 sequence

Substance: β-catenin (from UniProt P35222 1-781)
- binding [1]: binds
- binding [2]: binds
